Consider three molecules from article PMC7933275.

Protein sequences, listed by entry. Tags and fused reporters are not part of them. Lines headed by an entry give the natural chain unless they say otherwise; changes in a name come on top.
UniProt Q5XUX0: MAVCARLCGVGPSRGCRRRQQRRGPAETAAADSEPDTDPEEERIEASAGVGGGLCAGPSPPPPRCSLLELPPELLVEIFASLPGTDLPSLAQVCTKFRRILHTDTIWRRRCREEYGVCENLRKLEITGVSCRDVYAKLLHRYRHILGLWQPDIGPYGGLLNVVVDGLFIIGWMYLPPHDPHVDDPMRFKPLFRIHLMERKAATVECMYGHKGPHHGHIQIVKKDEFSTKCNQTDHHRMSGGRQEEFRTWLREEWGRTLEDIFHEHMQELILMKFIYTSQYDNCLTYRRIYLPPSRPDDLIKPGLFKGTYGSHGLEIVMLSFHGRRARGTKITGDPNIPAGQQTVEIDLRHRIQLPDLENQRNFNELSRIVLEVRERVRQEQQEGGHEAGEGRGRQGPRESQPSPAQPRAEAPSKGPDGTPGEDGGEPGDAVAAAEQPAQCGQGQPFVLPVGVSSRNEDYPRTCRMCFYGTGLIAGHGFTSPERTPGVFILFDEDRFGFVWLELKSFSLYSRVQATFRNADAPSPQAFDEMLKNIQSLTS
UniProt P35222: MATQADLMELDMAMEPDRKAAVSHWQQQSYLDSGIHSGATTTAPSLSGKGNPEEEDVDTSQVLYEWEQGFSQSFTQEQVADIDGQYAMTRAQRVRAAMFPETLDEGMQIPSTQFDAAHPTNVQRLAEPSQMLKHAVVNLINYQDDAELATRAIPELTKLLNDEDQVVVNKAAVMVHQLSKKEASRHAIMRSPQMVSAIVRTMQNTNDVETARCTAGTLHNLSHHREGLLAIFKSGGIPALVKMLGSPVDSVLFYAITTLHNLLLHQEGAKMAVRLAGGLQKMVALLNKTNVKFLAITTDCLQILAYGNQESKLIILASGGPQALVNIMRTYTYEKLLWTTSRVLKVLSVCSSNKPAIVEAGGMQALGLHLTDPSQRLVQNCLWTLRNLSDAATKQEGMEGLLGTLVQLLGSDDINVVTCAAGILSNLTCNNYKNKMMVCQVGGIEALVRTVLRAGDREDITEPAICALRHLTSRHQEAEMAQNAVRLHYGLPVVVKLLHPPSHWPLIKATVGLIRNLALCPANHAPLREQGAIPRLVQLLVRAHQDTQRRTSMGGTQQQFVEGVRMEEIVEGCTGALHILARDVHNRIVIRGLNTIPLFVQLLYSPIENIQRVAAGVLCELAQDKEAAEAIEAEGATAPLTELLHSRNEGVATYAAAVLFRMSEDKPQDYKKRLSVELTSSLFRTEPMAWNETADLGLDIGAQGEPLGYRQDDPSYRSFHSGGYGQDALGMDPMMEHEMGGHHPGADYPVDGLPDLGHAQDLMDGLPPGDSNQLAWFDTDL
UniProt P63208: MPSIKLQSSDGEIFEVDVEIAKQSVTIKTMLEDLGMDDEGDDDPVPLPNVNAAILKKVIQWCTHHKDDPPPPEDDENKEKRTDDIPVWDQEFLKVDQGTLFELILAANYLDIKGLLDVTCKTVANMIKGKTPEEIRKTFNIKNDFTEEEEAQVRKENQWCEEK

Read-outs that look alike come from different tables or passages of the source. Results are given in words; binding and its absence hold for the method and conditions named. Binding seen in cells or lysates may run through a third protein. For part of these data: Tags and fused reporters may be left off the sequences shown.

For test [1], the target named is myc-FBXO31ΔF (FBXO31 with a deletion of the F-box domain) (UniProt Q5XUX0). As to the kind of experiment: co-IP; hBMSCs cotransfected with FLAG-β-catenin and myc-FBXO31 or myc-FBXO31ΔF for 48 h, 10 μM MG132 for 6 h; nondenaturing lysis buffer (20 mM Tris-HCl pH 8.0, 137 mM NaCl, 0.5% Nonidet P40, 2 mM EDTA); IP with anti-myc antibodies overnight at 4 °C, protein A/G agarose beads, immunoblot.

Test [2] shares this target. The test is described as above. The source holds these as a separate data set.

As for “FLAG-β-catenin (from UniProt P35222 1-781)”, the binding result in test [1] is recorded as “no binding”.
The same measure, in the same setting: next, “Skp1, endogenous in hBMSCs (from UniProt P63208 1-163)”: “no binding”.

B1: ubiquitin-specific protease 53 (USP53), in hBMSCs of the anti-myc co-IP (protein, UniProt Q70EK8 1-1073)
chain: MAWVKFLRKPGGNLGKVYQPGSMLSLAPTKGLLNEPGQNSCFLNSAVQVLWQLDIFRRSLRVLTGHVCQGDACIFCALKTIFAQFQHSREKALPSDNIRHALAESFKDEQRFQLGLMDDAAECFENMLERIHFHIVPSRDADMCTSKSCITHQKFAMTLYEQCVCRSCGASSDPLPFTEFVRYISTTALCNEVERMLERHERFKPEMFAELLQAANTTDDYRKCPSNCGQKIKIRRVLMNCPEIVTIGLVWDSEHSDLTEAVVRNLATHLYLPGLFYRVTDENAKNSELNLVGMICYTSQHYCAFAFHTKSSKWVFFDDANVKEIGTRWKDVVSKCIRCHFQPLLLFYANPDGTAVSTEDALRQVISWSHYKSVAENMGCEKPVIHKSDNLKENGFGDQAKQRENQKFPTDNISSSNRSHSHTGVGKGPAKLSHIDQREKIKDISRECALKAIEQKNLLSSQRKDLEKGQRKDLGRHRDLVDEDLSHFQSGSPPAPNGFKQHGNPHLYHSQGKGSYKHDRVVPQSRASAQIISSSKSQILAPGEKITGKVKSDNGTGYDTDSSQDSRDRGNSCDSSSKSRNRGWKPMRETLNVDSIFSESEKRQHSPRHKPNISNKPKSSKDPSFSNWPKENPKQKGLMTIYEDEMKQEIGSRSSLESNGKGAEKNKGLVEGKVHGDNWQMQRTESGYESSDHISNGSTNLDSPVIDGNGTVMDISGVKETVCFSDQITTSNLNKERGDCTSLQSQHHLEGFRKELRNLEAGYKSHEFHPESHLQIKNHLIKRSHVHEDNGKLFPSSSLQIPKDHNAREHIHQSDEQKLEKPNECKFSEWLNIENSERTGLPFHVDNSASGKRVNSNEPSSLWSSHLRTVGLKPETAPLIQQQNIMDQCYFENSLSTECIIRSASRSDGCQMPKLFCQNLPPPLPPKKYAITSVPQSEKSESTPDVKLTEVFKATSHLPKHSLSTASEPSLEVSTHMNDERHKETFQVRECFGNTPNCPSSSSTNDFQANSGAIDAFCQPELDSISTCPNETVSLTTYFSVDSCMTDTYRLKYHQRPKLSFPESSGFCNNSLS
Regarding B1, in test [2], the binding result is given as “no binding”.
